In PubChem BioAssay AID1347423 (Functional Genomics Laboratory (NCATS/FGL), 2020):
Hit rate of the full screen: of about 52,000 sequences, about 210 (0.4%) were called active.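 The calls were made as follows: active = gene whose silencing raises cell survival under the drug, median off-target-corrected z-score across its silencing RNAs 2 or more; inactive = the rest.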 The list shows a part of the results.

test: Resistance to Poly (ADP-Ribose) Polymerase inhibitor: Gene Identification via Genome-wide siRNA Screen; settings: mouse BRCA2 R2336H ES cells, olaparib, CellTiter-Glo viability; hits give high values
How it was run: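 Genome-wide siRNA screen (3 siRNAs/gene, 20 nM) in mouse ES cells carrying hypomorphic BRCA2 R2336H; olaparib 500 nM added 48 h post-transfection, CellTiter-Glo viability 72 h later. Normalized to plate-median negative control; MAD z-scores, gene median, seed-adjusted.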

Row | Sequence | z-score
1 | GGUGGAUUCUAGCUUGUCGTT against Dusp10 | inactive: 0.122
2 | GGCAGUGGCUAUCAUGAGATT against Dpep1 | inactive: -0.818
3 | CGCACUGCUAAUCAUUCCCTT against Slc35f2 | inactive: 0.986
4 | GCAACUAUGACCAUAAACUTT against Gabre | inactive: 0.534
5 | GGAACUUCUCUGUUUUAGATT against Olfr802 | inactive: 0.774
6 | GGGUAACUAGAAACAGACUTT against Olfr1351 | inactive: -1
7 | GGCGAACGGUACUUAGACUTT against Agxt2l1 | inactive: 1.37
8 | GCGAAUGAUUGUCAGCAAATT against Gata1 | inactive: 0.405
9 | GGGAGAAACAAGUGUGUAATT against 6330548G22Rik | inactive: -0.265
10 | GGGUGUGCAUUUGUACUACTT against Smad9 | inactive: 0.879
11 | UUCUACGUCUGUCUUCUUATT against Olfr180 | inactive: -0.182
12 | GGAAGCUACAAAAAACCUCTT against Luzp1 | inactive: 0.795
13 | GGAGCCAUUGUGAAUGUCUTT against Dcxr | inactive: -2.47
14 | GCUACUCUUUGUCUCAUGUTT against Hexb | inactive: 1.52
15 | GGAAGAAACUUAAAUGAGUTT against Eif3s7 | inactive: 0.944
16 | GCAUAAAAUCAGUGAGGCCTT against C330017I15Rik | inactive: 0.894
17 | CCUUGCUCUGGCAAUCUGATT against G930045G22Rik | inactive: 0.504
18 | GGUCAACUUUGGCCUCUAUTT against Gpr142 | inactive: 0.375
19 | GGUAAUUCGGUUCAAACCATT against 4921515J06Rik | inactive: -1.3
20 | CCCAGGUUCCGGAGAACAATT against Abcc5 | inactive: -0.555
21 | GGGACUACCUCAUGUCAUUTT against Smad1 | inactive: 2.64
22 | GCACAGCGGUAAACAAAAUTT against Ywhaz | inactive: 2.27
23 | GGACACAAGAGGCCAAUAATT against 4921511C16 | inactive: -0.974
24 | GGGAUUCUCAGGUCACUGUTT against Pvrl4 | inactive: -1.06
25 | GGUUGACAUGAGUAACAUATT against Dlst | inactive: -0.0116
26 | GGAAACUUUAGCAUGAAUGTT against Hmgb2l1 | inactive: 1.83

Retrieved one by one from above (2):
Row | Sequence | z-score
9 | GGGAGAAACAAGUGUGUAATT against 6330548G22Rik | inactive: -0.265
3 | CGCACUGCUAAUCAUUCCCTT against Slc35f2 | inactive: 0.986

More records:

Row | Sequence | z-score
27 | GCAGAGGAGUGAAUAGAUATT against Dtx3l | inactive: 0.293
28 | GGAUUUCAAAUCCUUCCUGTT against Shmt2 | inactive: -0.519
29 | GGACAUUGCCCACAUGACCTT against A030009H04Rik | inactive: 1.17
30 | GGUUUAAGGUAGUUCAUGATT against Faf1 | inactive: -1.18
31 | CCAGUGAUUAUCUUUAAUGTT against Gm610 | inactive: 1.92
32 | GCGAGAAAAACGAUUCAGCTT against Spnb3 | inactive: -0.266
33 | GGGUUGUCUUCAUCUACUUTT against Crhr1 | inactive: -0.222
34 | GGUAGUUUCUGGACAAAAGTT against C330027C09Rik | inactive: -0.691
35 | GGCCCAGAAGAUGAUGAGATT against Kcne1l | inactive: -0.291
36 | GCAUACCAAUCACAGUCGATT against 4933404O11Rik | inactive: -0.187
37 | GCUGAAGUUACCAUAACCCTT against Cd84 | inactive: 1.08
38 | GCAGAGGACCAUUAAUUUATT against Ly78 | inactive: -0.642
39 | GGACUGAGAAAAUGUAUAUTT against Nek3 | inactive: 2.42
40 | GGAUUAGUGCAGGAAUCAATT against Rel | inactive: 1.57
41 | GCGGAAUGUACCAAGACGATT against Apoh | inactive: 0.486
42 | GGAGAUCGACGAAUACAUCTT against BC020184 | inactive: 0.224
43 | GGCCAUUGCUCAAUGGAAGTT against Gm605 | inactive: 0.761
44 | CCAUACAGAGGUGACAGUUTT against Olfr816 | inactive: -0.513
45 | GGAAGACGAUGACCUAAACTT against C1sb | inactive: 0.439
46 | CCAUUUCAAGCUCGAUAUGTT against Pde7b | inactive: -0.508
47 | GGAGAGACAGCAGUGAACATT against Dvl2 | inactive: 0.775
48 | GGCCAUCUUCCGAUUCUCUTT against Scn4a | inactive: 0.398
49 | GGAAGAGGACUGCUUAUCCTT against BC023179 | inactive: -1.08
50 | CCGGAAACUUCCUACGUGUTT against Cbln1 | inactive: 0.00316
51 | GCGCAUCCUAUUUUGAGAATT against Snx6 | inactive: -0.776
52 | CCAAGUACAUACUUCUCAUTT against Tbx4 | inactive: 0.0734

Row | Sequence | z-score
53 | GCUAUUGGAGGAAUGUAUCTT against Rasgrp4 | inactive: -0.103
54 | GCUGGAAUAUCAUUUCCCATT against Pdpk1 | inactive: 0.77
55 | GGAAUUCAUGACCUUUACATT against 0610042I15Rik | inactive: -1.85
56 | CCGAGGACUACAAGGUAUATT against 1810017G16Rik | inactive: -0.434
57 | CCUGUUUUUGCUACAUAGATT against 2810432O22Rik | inactive: 0.859
58 | GAUGGGACAGUAAAACAAATT against Klra3 | inactive: -0.0602
59 | GCACGCGCACCUACAAAAUTT against Sostdc1 | inactive: 0.362
60 | GCUAGGGAUUUACCUCUUCTT against Gpr65 | inactive: 2.19
61 | GUUGCCAGAUUUGGAUAUUTT against Abcg5 | inactive: -0.32
62 | GGACUUCAAGUACGUGCUGTT against P2ry2 | inactive: 1.98
63 | GGAUCUUUACUGCUUUGUGTT against Picalm | inactive: 0.738
64 | GGGCCACAAGCCUUCUAUUTT against Acvr2b | inactive: 0.855
65 | CGCAGAACGUGAACACCAATT against Smad3 | inactive: -0.133
66 | GGUACAAAAUGGCUUGUUGTT against A930001M12Rik | inactive: 1.15
67 | CAGUGAUCGUCAUAGCCAUTT against Olfr478 | inactive: 0.16
68 | GGUAACGGGACCAACACUUTT against Otop3 | inactive: -0.45
69 | GCCUUUAUAGGAUUUCAAATT against Ppp2r5e | inactive: 0.442
70 | GGUCCAAGAAGACAAUGCUTT against Cga | inactive: 0.976
71 | CCGGUUCACUGCUUGACCUTT against Wbp1 | inactive: 0.529
72 | GGACACCUCAUGAAGUAAUTT against Sav1 | inactive: 0.356
73 | GCCUUGGAUGAAAAGGUAATT against E130120L08Rik | inactive: -1.14
74 | CCUUCAUUCUCAUGUGACCTT against Psat1 | inactive: -0.472
75 | GGAGAAGAUGAAGUUGAAGTT against Cpsf5 | inactive: -0.36
76 | CGAGUACAGUGGUUUGUCATT against Orc1l | inactive: -1
77 | CCAGACUUAUGACAACAAATT against Colec12 | inactive: 1.23
78 | GGAAAAGUUCUUAAAGCUGTT against 5330408M12Rik | inactive: -1.28

Single entries from above.
For z-score, GCCUUUAUAGGAUUUCAAATT against Ppp2r5e reads inactive: 0.442
For z-score, GCACGCGCACCUACAAAAUTT against Sostdc1 reads inactive: 0.362

(cont.)

Row | Sequence | z-score
79 | CGGGCUAUAUUACCUUGGCTT against Phf19 | inactive: 0.513
80 | CCUUAGUAACAGCACUAGCTT against Lrfn2 | inactive: -0.681
81 | GGAGUUUAUCUUCAAGCAGTT against Tcp11 | inactive: 0.86
82 | CCUAUUCUAUGAUGCACCCTT against Cyp2f2 | inactive: 0.494
83 | GGUCGAGCAGAGUUGAAUCTT against Tars | inactive: -1.51
84 | GGUUCUUGAUGAAAAUCUATT against Acox1 | inactive: -0.412
85 | GCUCGAACAUAGCAGCAAGTT against 1700003E24Rik | inactive: 2.51
86 | CCUUUAUCUUGGGAAUUGGTT against Pik3ca | inactive: 1.37
87 | CCCUCCACUCCGUUUUUAUTT against Stim2 | inactive: -0.919
88 | GGUCACCUCUGCUAACAUCTT against U46068 | inactive: 1.35
89 | GCUCUUGUAUGUUCUGCUGTT against C330014O21Rik | inactive: 0.372
90 | CCUGAUAGGACCUAAUUGATT against Tom1 | inactive: 0.856
91 | GGAUGAGGUGAACUGAGGGTT against BC022651 | inactive: 1.06
92 | GGUGAAAGUUACGUGUGUGTT against 6330415M09Rik | inactive: 0.428
93 | GCUCAUGAUCAUAUCAUGATT against 1810055G02Rik | inactive: 1.14
94 | GGAAGAAAUACAGAAUAACTT against Npr3 | inactive: 0.683
95 | GGCUUUACGUGACAAAGAUTT against 4933430I17Rik | inactive: 2.13
96 | GGAAUACAAACUGCUGUACTT against 2010005J08Rik | inactive: 1.76
97 | GGUAGUCAGGGCUGACUUATT against 5730449L18Rik | inactive: -0.895
98 | GGAUGACCUUACCAGACACTT against BC003281 | inactive: 1.88
99 | GGGUCUCAAACUAAAUACUTT against Rangap1 | inactive: -1.44
100 | GGUCAUGCUGAUCAGCGACTT against 2700050P07Rik | inactive: 1.39
101 | GGCAGAAAGAUUAUGAGUUTT against Gpr171 | inactive: 2.26
102 | GCGGUAAGAACGUGGAACUTT against 4732473B16Rik | inactive: 0.341
103 | GCAAUGAGUGCUAGUUUUUTT against Cdc42 | inactive: 0.0951
104 | GCCAUCAAUGAUGUGCUCUTT against Zswim5 | inactive: -2.51

Quoted from above, nos. 89–90
Row | Sequence | z-score
89 | GCUCUUGUAUGUUCUGCUGTT against C330014O21Rik | inactive: 0.372
90 | CCUGAUAGGACCUAAUUGATT against Tom1 | inactive: 0.856
